Reference: PubChem BioAssay AID1671190 (National Center for Advancing Translational Sciences (NCATS), 2021)
Values joined by “and” are separate entries in the source; they are usually repeats but may differ in a detail not shown here. Equal values may be shown once. Hit rate of the full screen: of about 580,000 compounds, about 6,100 (1.1%) were called active. Inconclusive means that the source gave no clear call. Such entries were picked first, then a sample of the others. Calls come from the whole dose curve; as a rule, active = well fitted inhibition curve with a large enough effect; inconclusive = small, poorly fitted or top-dose-only effect, or another doubt; inactive = no such curve, though single readings can be large or run the other way. Potencies of inconclusive entries are doubtful fits and often do not repeat.
Potency is the fitted concentration of half-maximal effect.

The chains behind the UniProt entries cited, without tags or fusion partners. Where a name states a change or a piece, a line headed by the entry shows the natural chain unless it says otherwise.
UniProt P18054: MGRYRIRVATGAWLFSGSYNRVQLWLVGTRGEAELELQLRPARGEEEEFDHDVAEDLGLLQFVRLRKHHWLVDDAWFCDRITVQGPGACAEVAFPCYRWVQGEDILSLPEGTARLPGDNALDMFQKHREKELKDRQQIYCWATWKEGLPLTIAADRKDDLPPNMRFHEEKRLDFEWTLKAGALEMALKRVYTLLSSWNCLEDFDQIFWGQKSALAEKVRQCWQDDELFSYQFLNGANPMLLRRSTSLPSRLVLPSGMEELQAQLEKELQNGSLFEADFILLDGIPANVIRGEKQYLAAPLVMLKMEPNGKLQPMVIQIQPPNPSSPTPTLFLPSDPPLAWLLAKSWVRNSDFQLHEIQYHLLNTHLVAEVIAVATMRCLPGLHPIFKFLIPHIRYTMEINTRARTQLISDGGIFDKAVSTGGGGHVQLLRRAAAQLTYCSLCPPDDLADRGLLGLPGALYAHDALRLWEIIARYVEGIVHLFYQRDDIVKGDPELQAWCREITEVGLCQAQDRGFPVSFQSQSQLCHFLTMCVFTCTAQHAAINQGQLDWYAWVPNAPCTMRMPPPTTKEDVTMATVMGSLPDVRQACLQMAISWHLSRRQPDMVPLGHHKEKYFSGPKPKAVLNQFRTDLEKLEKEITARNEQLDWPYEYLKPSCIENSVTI

What follows are compounds tested against Polyunsaturated fatty acid lipoxygenase ALOX12 (Homo sapiens) (UniProt P18054) (assay: Primary qHTS assay for inhibitors of human arachidonate 12S-lipoxygenase (ALOX12): Round 2). Conditions: purified 12hLO, xylenol orange hydroperoxide absorbance; series mostly up to 108 µM.
Method in brief: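 Hydroperoxide product was detected by ferrous iron/xylenol orange as the 573 to 405 nm absorbance ratio. Arachidonic acid at 40 uM (final) was turned over for 30 min at room temperature by 150 nM human 12hLO, pH 7.0 Hepes buffer, after 15 min compound preincubation.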
`C=CCn1c(O)c(CN2CCN(Cc3ccccc3)CC2)c(C)c(C#N)c1=O` was tested, and the Potency was inconclusive: 50.1 µM [inhibitor, partial curve, poor fit].
For `COC(=O)c1ccc(NC(=O)CCc2c(C)nc3c(-c4ccccc4)c(C)nn3c2C)cc1`, the Potency was inconclusive: 126 µM [inhibitor, partial curve, poor fit].
For `O=C(O)CSc1nc2ccccc2[nH]1`, the Potency was inconclusive: 35.5 µM [inhibitor, single point].
`CN1CCN(CCOC2Cc3ccccc3Sc3ccc(Cl)cc32)CC1` (centres undefined) was tested, and the Potency was inconclusive: 44.7 µM [inhibitor, partial curve, poor fit].
For `COC(=O)Cc1c(C)c2ccc(OCC(=O)C(C)(C)C)c(C)c2oc1=O`, the Potency was “inactive”.
`N#Cc1c(NC(=O)CSc2ncnc3ccccc23)sc2c1CCC2` was tested, and the Potency was inconclusive: 39.8 µM [inhibitor, partial curve, poor fit].
In the case of `CCc1nc2c(c(-c3ccc(Cl)cc3)n1)CN(C(=O)OC)CC2`, the Potency is reported as inconclusive: 28.2 µM [inhibitor, full curve].
`Oc1ccc2oc3c(c2c1/C=N/n1cnnc1)CCCC3` was tested, and the Potency was inconclusive: 20 µM [inhibitor, partial curve, poor fit].
With `CCOC(=O)Cn1c(=O)n(CC2CCCO2)c2nc(-c3ccccc3F)nc(C(N)=O)c21` (centres undefined) the Potency was inconclusive: 7.08 µM [inhibitor, partial curve, poor fit].
For `N#C/C(=C\c1c[nH]c2ccccc12)C(=O)Nc1ccccc1O`, the Potency was inconclusive: 50.1 µM [inhibitor, partial curve, poor fit].
`COc1ccc(CNC[C@H]2COCc3nc4cc(C(F)(F)F)ccc4n32)cn1` was tested, and the Potency was “inactive”.
`c1ccc(CCNc2ccc3ncc(-c4cccc5ccccc45)n3n2)nc1` was tested, and the Potency was inconclusive: 100 µM [inhibitor, single point].
In the case of `CCNS(=O)(=O)c1ccc(Br)c(C(=O)OC(C)C(=O)NCC2CCCCC2)c1` (centres undefined), the Potency is reported as “inactive”.
For `COc1cccc(C(=O)Nc2cccc(C(=O)N3CCOCC3)c2)c1`, the Potency was “inactive”.
With `CC(=O)Nc1ccc(C2Nc3cc(C)c(C)cc3NC3=C2C(=O)CC(C)(C)C3)cc1` (centres undefined) the Potency was inconclusive: 70.8 µM [inhibitor, partial curve, poor fit].
`O=C(NCc1ccc(Cl)cc1)c1ccc2ccccc2n1` was tested, and the Potency was inconclusive: 35.5 µM [inhibitor, partial curve, poor fit].
`CCN(c1ccccc1)S(=O)(=O)c1ccc(OCC(F)(F)F)c(NC(=O)c2ccc(=O)[nH]c2)c1` was tested, and the Potency was inconclusive: 70.8 µM [inhibitor, partial curve, poor fit].
For `Cc1ccc2oc(-c3ccc(Br)cc3)nc2c1`, the Potency was “inactive”.
`Cc1ccc(/C=C(/NC(=O)c2ccccc2)C(=O)NC(Cc2c[nH]c3ccccc23)C(=O)O)cc1` (centres undefined) was tested, and the Potency was inconclusive: 44.7 µM [inhibitor, partial curve, poor fit].
For `Clc1ncccc1-c1nnn(-c2ccccc2Br)n1`, the Potency was “inactive”.
In the case of `COC(=O)[C@@]12C[C@@H](CC(=O)NCc3cccs3)C(=O)N(Cc3ccco3)C1=CCC(C)(C)C2`, the Potency is reported as inconclusive: 28.2 µM [inhibitor, single point].
`COc1ccc(N2CCN(Cc3oc(CO)cc(=O)c3O)CC2)cc1` was tested, and the Potency was inconclusive: 5.62 µM [inhibitor, full curve, poor fit].
For `CCSc1nc2n(n1)C(c1cccs1)C1=C(CC(C)(C)CC1=O)N2` (centres undefined), the Potency was inconclusive: 50.1 µM [inhibitor, partial curve].
With `Cc1ccc2cc(C(=O)NCC3CCN(C(C)C)C3)[nH]c2c1` (centres undefined) the Potency was inconclusive: 31.6 µM [inhibitor, partial curve, poor fit].
In the case of `Cc1cccc(C)c1NC(=S)NC(=O)c1ccccc1F`, the Potency is reported as inconclusive: 70.8 µM [inhibitor, partial curve, poor fit].
With `COc1cc(O)c(C(CCN2CCCC2)c2ccc3c(c2)OCO3)c(OC)c1` (centres undefined) the Potency was inconclusive: 31.6 µM [inhibitor, partial curve, poor fit].
In the case of `OCC1CN(C2CCC2)CC12CCN(Cc1ccc(Br)o1)CC2` (centres undefined), the Potency is reported as “inactive”.
For `NC(=O)c1ccc(NC(=O)c2ccccc2CSc2nc3ccccc3o2)cc1`, the Potency was “inactive”.
In the case of `CCCCCC(O)CCc1n[nH]c(=S)n1-c1ccccc1` (centres undefined), the Potency is reported as inconclusive: 35.5 µM [inhibitor, partial curve, poor fit].
In the case of `CCC(C)NC(=O)NC(=O)CSc1nnc(-c2ccccc2F)n1C1CC1` (centres undefined), the Potency is reported as “inactive”.
`COC(=O)[C@H](CC(C)C)N(CCc1cn(Cc2ccccc2)nn1)S(=O)(=O)c1ccc(F)cc1Br` was tested, and the Potency was inconclusive: 31.6 µM [inhibitor, partial curve, poor fit].
With `CCN1CCN(c2ncnc3c2cnn3-c2ccc(C)c(Cl)c2)CC1` the Potency was inconclusive: 126 µM [inhibitor, partial curve, poor fit].
`CC(Oc1ccc(F)cc1)C(=O)Nc1nc(-c2ccc(F)cc2)ns1` (centres undefined) was tested, and the Potency was inconclusive: 50.1 µM [inhibitor, partial curve, poor fit].
For `COc1ccc(C)cc1S(=O)(=O)NCC(c1cccs1)S(=O)(=O)c1ccc(C)cc1` (centres undefined), the Potency was inconclusive: 12.6 µM [inhibitor, partial curve, poor fit].
In the case of `CCOc1cc(C(=O)Nc2ccc(C)cc2C)ccc1OCC(=O)N1CCCCC1`, the Potency is reported as “inactive”.
With `C=CCNC(=S)NNC(=O)Nc1ccccc1` the Potency was inconclusive: 12.6 µM [inhibitor, full curve, poor fit].
`O=C(Cc1cc(=O)[nH][nH]1)N/N=C/c1c(Cl)cccc1Cl` was tested, and the Potency was inconclusive: 126 µM [inhibitor, partial curve, poor fit].
`CCCCNC(=O)c1ccc2nc(-c3ccco3)c(-c3ccco3)nc2c1` was tested, and the Potency was inconclusive: 8.91 µM [inhibitor, full curve, poor fit].
For `O=C(NCC(=O)N(Cc1cccs1)C1(C(=O)NC2CCCCC2)CCCCC1)c1ccccc1`, the Potency was “inactive”.
In the case of `O=C(CSc1nnc(-c2ccccc2)c2ccccc12)c1ccc2c(c1)OCCCO2`, the Potency is reported as active: 44.7 µM.
With `O=C(Nc1cnc(-c2ccccc2)nc1)C1CCCCC1` the Potency was “inactive”.
With `CCN(Cc1nc(-c2ccc(OC)cc2)no1)C(=O)c1ccoc1C` the Potency was inconclusive: 112 µM [inhibitor, single point].
In the case of `O=C(c1cccc2[nH]ccc12)N1CCC(n2cc(-c3nc(-c4ccccc4)no3)nn2)CC1`, the Potency is reported as “inactive”.
`Cc1ccc(Oc2ccccc2NC(=O)Cn2nc(C(N)=O)c3ccccc3c2=O)cc1` was tested, and the Potency was inconclusive: 89.1 µM [inhibitor, single point].
For `CCOC(=O)c1c(C)sc(-c2c(-c3cc(C)ccc3C)[nH]c3c2c(=O)n(C)c(=O)n3C)c1O`, the Potency was inconclusive: 44.7 µM [inhibitor, partial curve, poor fit].
For `O=C(NCc1ccncc1)[C@@H]1CCCN1C(=O)[C@H]1CCCN1C(=O)c1cccs1`, the Potency was inconclusive: 126 µM [inhibitor, single point].
In the case of `OCC1(Cc2ccc(Cl)cc2)CCN(CCCc2ccccc2)CC1`, the Potency is reported as active: 3.16 µM.
In the case of `CCOC(=O)c1c(C)oc2ncn(Cc3noc(-c4cccs4)n3)c(=O)c12`, the Potency is reported as “inactive”.
For `CC(Sc1nc(-c2ccccc2)cc(C(F)(F)F)n1)C(=O)Nc1sc2c(c1C#N)CCC2` (centres undefined), the Potency was inconclusive: 50.1 µM [inhibitor, partial curve, poor fit].
`Cn1c(SCC(=O)c2ccc3c(c2)NC(=O)CO3)nnc1-c1ccncc1` was tested, and the Potency was “inactive”.
In the case of `CCN(c1ccc(C)cc1)S(=O)(=O)c1nnc(NC(=O)C2CCCCC2)s1`, the Potency is reported as “inactive”.
`Cc1ccc(NS(=O)(=O)c2ccc(C(=O)N3CCN(c4ccccn4)CC3)cc2)cc1` was tested, and the Potency was inconclusive: 12.6 µM [inhibitor, partial curve, poor fit].
With `O=C(NCCCN1CCCC1=O)C1CCCCC1` the Potency was “inactive”.
For `Cc1noc(CN(C)C(=O)C2C3C(=O)N(Cc4ccc(C)c(C)c4)C[C@@]34C=C[C@@H]2O4)n1` (some centres undefined), the Potency was “inactive”.
`COC(=O)c1cc2c(ccn2-c2ccc(F)cc2)n1Cc1ccc(OC(C)=O)cc1` was tested, and the Potency was inconclusive: 17.8 µM [inhibitor, partial curve].
With `CCC(C)Oc1nc(C)cc(C)c1S(=O)(=O)c1ccccc1C` (centres undefined) the Potency was “inactive”.
`Cc1cc(C(=O)Nc2ccccc2C(=O)O)ccc1NC(=O)COc1cccc([N+](=O)[O-])c1` was tested, and the Potency was inconclusive: 0.891 µM [inhibitor, full curve].
For `Cn1c(-c2sccc2OCc2ccc(Cl)cc2Cl)n[nH]c1=S`, the Potency was active: 28.2 µM.
For `Cc1ccc(S(=O)(=O)N2CCC(=O)N([C@H](COCc3ccc(Cl)cc3)Cc3ccccc3)CC2)cc1`, the Potency was inconclusive: 50.1 µM [inhibitor, partial curve, poor fit].
With `COc1ccc(C(=O)N2CC[C@@H](CC(=O)O)[C@@H](CCN3CCCCC3)C2)cc1` the Potency was inconclusive: 25.1 µM [inhibitor, full curve, poor fit].
In the case of `CC(C(=O)O)N1C(=O)/C(=C/c2cccn2C)SC1=S` (centres undefined), the Potency is reported as inconclusive: 31.6 µM [inhibitor, partial curve].
`Cc1cc(C)c(S(=O)(=O)NCc2ccc3c(c2)OCO3)c(C)c1` was tested, and the Potency was inconclusive: 141 µM [inhibitor, single point].
In the case of `Cc1cc(C)c2[nH]c(=O)c(C(c3nnnn3CC3CCCO3)N3CCCC(C)C3)cc2c1` (centres undefined), the Potency is reported as inconclusive: 39.8 µM [inhibitor, partial curve].
